Measured values reported in patent publication US10526317B2, “Benzocyanine compounds” (PIERCE BIOTECHNOLOGY, INC., priority 2012, dated 2020).

Experiments:
[1] = test system: goat anti-rabbit (GAR) antibodies; test: Labeling of goat anti-rabbit antibody with dye NHS esters (mole dye to mole protein ratio)
[2] = test system: goat anti-mouse (GAM) antibodies; test: Labeling of goat anti-mouse antibody with dye NHS esters (mole dye to mole protein ratio)

Compound | Mole Dye/Mole Protein Ratio @ 15 X ([1]; GAR, 15 X molar excess) | Mole Dye/Mole Protein Ratio @ 25 X ([1]; GAR, 25 X molar excess) | Mole Dye/Mole Protein Ratio @ 15 X ([2]; GAM, 15 X molar excess) | degree of labeling ([1]; GAR-1X molar excess) | degree of labeling ([1]; GAR-2X molar excess) | degree of labeling ([1]; GAR-3X molar excess) | degree of labeling ([2]; GAM-3X molar excess)
COCCOCCOCCOCC[N+]1=C(/C=C/C=C/C=C2/N(CCOCCOCCOCCOCCC(=O)ON3C(=O)CCC3=O)c3ccc4c(S(=O)(=O)[O-])cc(S(=O)(=O)O)cc4c3C2(C)CCOCCOCCOCCOC)C(C)(CCOCCOCCOCCOC)c2c1ccc1c(S(=O)(=O)O)cc(S(=O)(=O)O)cc21 (stereo not shown) [Compound V08-15173] | 12.7 | 19.6 | 12.4 | – | – | – | –
Cy5.5 | – | – | – | 0.7 | 1.2 | 1.7 | 2.2
